The values below come from article PMC5965902.

For test [1], the target named is RitR (Repressor of iron transport Regulator), wild type (Streptococcus pneumoniae strain R800). Kind of test: SEC; BioBasic SEC-300A, 10 mM TRIS pH 6.5, 150 mM NaCl, 100 mM malic acid; reduced sample, 1 mM DTT added; both purified. (In general: SEC sorts molecules by how far they enter the pores of the column.)
Test [2] has the same target. In words: condition: only with 1 mM iron, magnesium, zinc, calcium or manganese, no oxidant; SEC; wild-type RitR 116 μM pre-incubated with 1 mM iron, magnesium, zinc, calcium or manganese; conditions as for Fig 2; both purified.
For test [3] the target is unchanged. In words: SEC; BioBasic SEC-300A, 10 mM TRIS pH 6.5, 150 mM NaCl, 100 mM malic acid; no DTT and no H2O2; both purified.
For test [4] the target is unchanged. In words: 2D 1H-15N HSQC NMR; 15N-labelled wild-type RitR, 360 μM, DTT titrated to 10 mM; both purified.
Test [5] has the same target. Kind of test: SEC; BioBasic SEC-300A, 10 mM TRIS pH 6.5, 150 mM NaCl, 100 mM malic acid; no DTT and no H2O2; both purified. The source holds these as a separate data set.
In test [6] the target is T1, RitR (Repressor of iron transport Regulator), wild type (Streptococcus pneumoniae strain R800), A0ACD7.
T1 chain: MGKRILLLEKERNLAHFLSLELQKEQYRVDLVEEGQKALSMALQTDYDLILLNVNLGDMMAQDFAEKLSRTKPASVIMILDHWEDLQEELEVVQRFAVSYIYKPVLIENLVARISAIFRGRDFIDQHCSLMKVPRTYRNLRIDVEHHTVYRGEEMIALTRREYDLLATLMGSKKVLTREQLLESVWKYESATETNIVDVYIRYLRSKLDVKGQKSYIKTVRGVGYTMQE
In words: 2D 1H-15N HSQC NMR; 15N-labelled protein, 360 μM, no DTT; both purified. Conditions: remark: other sources report otherwise.

In test [7] the target is T1, RitR (Repressor of iron transport …). Kind of test: crystal structure; RitROX: RitR treated with 1 mM H2O2, dimer peak from SEC; crystals from PEG 3350, magnesium sulfate, with 1 mM H2O2, pH 6.5; both purified. The following applies: remark: other sources report otherwise.
Test [8] shares this target. In words: SEC; wild-type RitR 116 μM pre-incubated with 1 mM CuCl2; conditions as for Fig 2; both purified. The following applies: remark: other sources report otherwise.
Test [9] has the same target. In words: non-reducing SDS-PAGE; purified RitR in DTT, excess oxidant (20 mM) for 20 min at room temperature, iodoacetamide, 12% gel, Coomassie; dimer with H2O2 and much less with diamide; both purified. Conditions: remark: other sources report otherwise.
Test [10] shares this target. In words: SEC; BioBasic SEC-300A, 10 mM TRIS pH 6.5, 150 mM NaCl, 100 mM malic acid; 200 μM RitR exposed to 1 mM H2O2 for 3 h; both purified. The following applies: remark: other sources report otherwise.

No constants are given. Whether binding was seen depends on the method and setting. Some entries that bind do so weakly or less than the wild type.

Consider “RitR (Repressor of iron transport Regulator), wild type (from UniProt A0ACD7PPZ9 1-229)”, for which the binding entry in test [1] was “no binding (condition: with 1 mM DTT, no H2O2)”; in test [2], “no binding”; in test [3], “no binding (condition: without H2O2)”; in test [4], “no binding (condition: with 10 mM DTT)”; in [5], “binds weakly”.

B1: RitR (Repressor of iron transport Regulator), wild type, A0ACD7PPZ9 1-229 (protein)
chain: MGKRILLLEKERNLAHFLSLELQKEQYRVDLVEEGQKALSMALQTDYDLILLNVNLGDMMAQDFAEKLSRTKPASVIMILDHWEDLQEELEVVQRFAVSYIYKPVLIENLVARISAIFRGRDFIDQHCSLMKVPRTYRNLRIDVEHHTVYRGEEMIALTRREYDLLATLMGSKKVLTREQLLESVWKYESATETNIVDVYIRYLRSKLDVKGQKSYIKTVRGVGYTMQE
As for B1, the binding entry in test [6], in test [7], in test [8], in test [9] and in test [10] was “binds” throughout.
